Experimental data: article doi:10.1101/699132 (bioRxiv, 2020)

B1: ERDJ5 (protein, UniProt Q8IXB1 33-793)
chain: DQDFYSLLGVSKTASSREIRQAFKKLALKLHPDKNPNNPNAHGDFLKINRAYEVLKDEDLRKKYDKYGEKGLEDNQGGQYESWNYYRYDFGIYDDDPEIITLERREFDAAVNSGELWFVNFYSPGCSHCHDLAPTWRDFAKEVDGLLRIGAVNCGDDRMLCRMKGVNSYPSLFIFRSGMAPVKYHGDRSKESLVSFAMQHVRSTVTELWTGNFVNSIQTAFAAGIGWLITFCSKGGDCLTSQTRLRLSGMLDGLVNVGWMDCATQDNLCKSLDITTSTTAYFPPGATLNNKEKNSILFLNSLDAKEIYLEVIHNLPDFELLSANTLEDRLAHHRWLLFFHFGKNENSNDPELKKLKTLLKNDHIQVGRFDCSSAPDICSNLYVFQPSLAVFKGQGTKEYEIHHGKKILYDILAFAKESVNSHVTTLGPQNFPANDKEPWLVDFFAPWCPPCRALLPELRRASNLLYGQLKFGTLDCTVHEGLCNMYNIQAYPTTVVFNQSNIHEYEGHHSAEQILEFIEDLMNPSVVSLTPTTFNELVTQRKHNEVWMVDFYSPWCHPCQVLMPEWKRMARTLTGLINVGSIDCQQYHSFCAQENVQRYPEIRFFPPKSNKAYHYHSYNGWNRDAYSLRIWGLGFLPQVSTDLTPQTFSEKVLQGKNHWVIDFYAPWCGPCQNFAPEFELLARMIKGKVKAGKVDCQAYAQTCQKAGIRAYPTVKFYFYERAKRNFQEEQINTRDAKAIAALISEKLETLRNQGKRNKDEL
B2: QSOX1, human islets (enzyme, UniProt O00391 30-747)
chain: APRSALYSPSDPLTLLQADTVRGAVLGSRSAWAVEFFASWCGHCIAFAPTWKALAEDVKAWRPALYLAALDCAEETNSAVCRDFNIPGFPTVRFFKAFTKNGSGAVFPVAGADVQTLRERLIDALESHHDTWPPACPPLEPAKLEEIDGFFARNNEEYLALIFEKGGSYLGREVALDLSQHKGVAVRRVLNTEANVVRKFGVTDFPSCYLLFRNGSVSRVPVLMESRSFYTAYLQRLSGLTREAAQTTVAPTTANKIAPTVWKLADRSKIYMADLESALHYILRIEVGRFPVLEGQRLVALKKFVAVLAKYFPGRPLVQNFLHSVNEWLKRQKRNKIPYSFFKTALDDRKEGAVLAKKVNWIGCQGSEPHFRGFPCSLWVLFHFLTVQAARQNVDHSQEAAKAKEVLPAIRGYVHYFFGCRDCASHFEQMAAASMHRVGSPNAAVLWLWSSHNRVNARLAGAPSEDPQFPKVQWPPRELCSACHNERLDVPVWDVEATLNFLKAHFSPSNIILDFPAAGSAARRDVQNVAAAPELAMGALELESRNSTLDPGKPEMMKSPTNTTPHVPAEGPEASRPPKLHPGLRAAPGQEPPEHMAELQRNEQEQPLGQWHLSKRDTGAALLAESRAEKNRLWGPLEVRRVGRSSKQLVDIPEGQLEARAGRGRGQWLQVLGGGFSYLDISLCVGLYSLSFMGLLAMYTYFQAKIRALKGHAGHPAA
B3: Peroxiredoxin-4 (PRDX4), human islets (enzyme, UniProt Q13162 38-271)
chain: WETEERPRTREEECHFYAGGQVYPGEASRVSVADHSLHLSKAKISKPAPYWEGTAVIDGEFKELKLTDYRGKYLVFFFYPLDFTFVCPTEIIAFGDRLEEFRSINTEVVACSVDSQFTHLAWINTPRRQGGLGPIRIPLLSDLTHQISKDYGVYLEDSGHTLRGLFIIDDKGILRQITLNDLPVGRSVDETLRLVQAFQYTDKHGEVCPAGWKPGSETIIPDPAGKLKYFDKLN
B4: ERP44 (protein, UniProt Q9BS26 30-406)
chain: EITSLDTENIDEILNNADVALVNFYADWCRFSQMLHPIFEEASDVIKEEFPNENQVVFARVDCDQHSDIAQRYRISKYPTLKLFRNGMMMKREYRGQRSVKALADYIRQQKSDPIQEIRDLAEITTLDRSKRNIIGYFEQKDSDNYRVFERVANILHDDCAFLSAFGDVSKPERYSGDNIIYKPPGHSAPDMVYLGAMTNFDVTYNWIQDKCVPLVREITFENGEELTEEGLPFLILFHMKEDTESLEIFQNEVARQLISEKGTINFLHADCDKFRHPLLHIQKTPADCPVIAIDSFRHMYVFGDFKDVLIPGKLKQFVFDLHSGKLHREFHHGPDPTDTAPGEQAQDVASSPPESSFQKLAPSEYRYTLLRDRDEL
B5: ERGIC1 (protein, UniProt Q969X5 1-290)
chain: MPFDFRRFDIYRKVPKDLTQPTYTGAIISICCCLFILFLFLSELTGFITTEVVNELYVDDPDKDSGGKIDVSLNISLPNLHCELVGLDIQDEMGRHEVGHIDNSMKIPLNNGAGCRFEGQFSINKVPGNFHVSTHSATAQPQNPDMTHVIHKLSFGDTLQVQNIHGAFNALGGADRLTSNPLASHDYILKIVPTVYEDKSGKQRYSYQYTVANKEYVAYSHTGRIIPAIWFRYDLSPITVKYTERRQPLYRFITTICAIIGGTFTVAGILDSCIFTASEAWKKIQLGKMH
B6: TMEM24 (protein, UniProt O14523 1-706)
chain: MDPGWGQRDVGWAALLILFAASLLTVFAWLLQYARGLWLARARGDRGPGPALAGEPAGSLRELGVWRSLLRLRATRAGAAEEPGVRGLLASLFAFKSFRENWQRAWVRALNEQACRNGSSIQIAFEEVPQLPPRASISHVTCVDQSEHTMVLRCQLSAEEVRFPVSVTQQSPAAVSMETYHVTLTLPPTQLEVNLEEIPGEGLLISWAFTDRPDLSLTVLPKLQARERGEEQVELSTIEELIKDAIVSTQPAMMVNLRACSAPGGLVPSEKPPMMPQAQPAIPRPNRLFLRQLRASHLGNELEGTEELCCVAELDNPMQQKWTKPARAGSEVEWTEDLALDLGPQSRELTLKVLRSSSCGDTELLGQATLPVGSPSRPLSRRQLCPLTPGPGKALGPAATMAVELHYEEGSPRNLGTPTSSTPRPSITPTKKIELDRTIMPDGTIVTTVTTVQSRPRIDGKLDSPSRSPSKVEVTEKTTTVLSESSGPSNTSHSSSRDSHLSNGLDPVAETAIRQLTEPSGRVAKKTPTKRSTLIISGVSKVPIAQDELALSLGYAASLEASVQDDAGTSGGPSSPPSDPPAMSPGPLDALSSPTSVQEADETTRSDISERPSVDDIESETGSTGALETRSLKDHKVSFLRSGTKLIFRRRPRQKEAGLSQSHDDLSNATATPSVRKKAGSFSRRLIKRFSFKSKPKANGNPSPQL

target: human proinsulin (human (endogenous in human islets)); assay: affinity purification with mass spectrometry

Row | Binder | binding
1 | B1 | binds
2 | B2 | binds
3 | B3 | binds
4 | B4 | binds
5 | B5 | binds
6 | B6 | no binding

Results are given in words; binding and its absence hold for the method and conditions named. Binding seen in cells or lysates may run through a third protein. A yes stands for co-enrichment or nearness to the bait. Other partners may have been found. No binding means not detected with the bait.
